Source: article doi:10.1101/2020.03.06.980433
Results are given in words; binding and its absence hold for the method and conditions named. Binding seen in cells or lysates may run through a third protein. Some entries that bind do so weakly or less than the wild type.

Sequences of proteins named here, by UniProt entry; tags and fusion partners are left off.
UniProt P60521: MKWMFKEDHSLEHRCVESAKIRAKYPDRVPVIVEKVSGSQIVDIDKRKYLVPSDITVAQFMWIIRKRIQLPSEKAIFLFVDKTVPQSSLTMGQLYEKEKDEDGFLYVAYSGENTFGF

Target: Irgm2-GFP (mouse)
Test: co-IP

binding: binds
Substance: gamma-aminobutyric acid (GABA)-A-receptor-associated protein (GabarapL2 or Gate-16) (from UniProt P60521 1-117)
